Hit rate of the full screen: of about 290,000 compounds, about 110 (0.038%) were called active. This list was built around the results that the source calls inconclusive (neither active nor inactive); the mix of calls is not that of the screen. Calls follow the shape of the dose curve; as a rule, active = well fitted inhibition curve with a large enough effect in the polarisation, with a control signal flat (not every such curve was filed as active); inconclusive = small, poorly fitted or top-dose-only effect, or effect the other way, or a change in a side signal; inactive = no such curve, though single readings can be large or run the other way; the % refers to the polarisation. Potencies beside an inconclusive call are fits to weak or partial responses and may not hold up. “Side channel” marks fits to a control or component signal instead of the main read-out.
molecular target: Histone-lysine N-methyltransferase 2A (Homo sapiens) (UniProt Q03164); experiment: qHTS Fluorescence Polarization Assay for Inhibitors of MLL CXXC domain - DNA interaction; conditions: MLL-CXXC / FITC-HOXA9 DNA fluorescence polarization; activity change, negative = inhibition: at 115 µM (top of the series)
Outline: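 Purified MLL-CXXC (added from a 7 uM solution) was preincubated 5 min at ambient with pinned compounds in 50 mM Tris-HCl pH 7.5, 50 mM NaCl, 1 mM DTT, 0.05% BSA. Fluorescein-labeled HOX-A9 DNA (50 nM solution) followed, 30 min, then polarization read.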
Potency is read from the fitted curve at half-maximal effect.

Chains of the proteins cited; added tags and fusions are not shown.
UniProt Q03164, whole entry, looked up: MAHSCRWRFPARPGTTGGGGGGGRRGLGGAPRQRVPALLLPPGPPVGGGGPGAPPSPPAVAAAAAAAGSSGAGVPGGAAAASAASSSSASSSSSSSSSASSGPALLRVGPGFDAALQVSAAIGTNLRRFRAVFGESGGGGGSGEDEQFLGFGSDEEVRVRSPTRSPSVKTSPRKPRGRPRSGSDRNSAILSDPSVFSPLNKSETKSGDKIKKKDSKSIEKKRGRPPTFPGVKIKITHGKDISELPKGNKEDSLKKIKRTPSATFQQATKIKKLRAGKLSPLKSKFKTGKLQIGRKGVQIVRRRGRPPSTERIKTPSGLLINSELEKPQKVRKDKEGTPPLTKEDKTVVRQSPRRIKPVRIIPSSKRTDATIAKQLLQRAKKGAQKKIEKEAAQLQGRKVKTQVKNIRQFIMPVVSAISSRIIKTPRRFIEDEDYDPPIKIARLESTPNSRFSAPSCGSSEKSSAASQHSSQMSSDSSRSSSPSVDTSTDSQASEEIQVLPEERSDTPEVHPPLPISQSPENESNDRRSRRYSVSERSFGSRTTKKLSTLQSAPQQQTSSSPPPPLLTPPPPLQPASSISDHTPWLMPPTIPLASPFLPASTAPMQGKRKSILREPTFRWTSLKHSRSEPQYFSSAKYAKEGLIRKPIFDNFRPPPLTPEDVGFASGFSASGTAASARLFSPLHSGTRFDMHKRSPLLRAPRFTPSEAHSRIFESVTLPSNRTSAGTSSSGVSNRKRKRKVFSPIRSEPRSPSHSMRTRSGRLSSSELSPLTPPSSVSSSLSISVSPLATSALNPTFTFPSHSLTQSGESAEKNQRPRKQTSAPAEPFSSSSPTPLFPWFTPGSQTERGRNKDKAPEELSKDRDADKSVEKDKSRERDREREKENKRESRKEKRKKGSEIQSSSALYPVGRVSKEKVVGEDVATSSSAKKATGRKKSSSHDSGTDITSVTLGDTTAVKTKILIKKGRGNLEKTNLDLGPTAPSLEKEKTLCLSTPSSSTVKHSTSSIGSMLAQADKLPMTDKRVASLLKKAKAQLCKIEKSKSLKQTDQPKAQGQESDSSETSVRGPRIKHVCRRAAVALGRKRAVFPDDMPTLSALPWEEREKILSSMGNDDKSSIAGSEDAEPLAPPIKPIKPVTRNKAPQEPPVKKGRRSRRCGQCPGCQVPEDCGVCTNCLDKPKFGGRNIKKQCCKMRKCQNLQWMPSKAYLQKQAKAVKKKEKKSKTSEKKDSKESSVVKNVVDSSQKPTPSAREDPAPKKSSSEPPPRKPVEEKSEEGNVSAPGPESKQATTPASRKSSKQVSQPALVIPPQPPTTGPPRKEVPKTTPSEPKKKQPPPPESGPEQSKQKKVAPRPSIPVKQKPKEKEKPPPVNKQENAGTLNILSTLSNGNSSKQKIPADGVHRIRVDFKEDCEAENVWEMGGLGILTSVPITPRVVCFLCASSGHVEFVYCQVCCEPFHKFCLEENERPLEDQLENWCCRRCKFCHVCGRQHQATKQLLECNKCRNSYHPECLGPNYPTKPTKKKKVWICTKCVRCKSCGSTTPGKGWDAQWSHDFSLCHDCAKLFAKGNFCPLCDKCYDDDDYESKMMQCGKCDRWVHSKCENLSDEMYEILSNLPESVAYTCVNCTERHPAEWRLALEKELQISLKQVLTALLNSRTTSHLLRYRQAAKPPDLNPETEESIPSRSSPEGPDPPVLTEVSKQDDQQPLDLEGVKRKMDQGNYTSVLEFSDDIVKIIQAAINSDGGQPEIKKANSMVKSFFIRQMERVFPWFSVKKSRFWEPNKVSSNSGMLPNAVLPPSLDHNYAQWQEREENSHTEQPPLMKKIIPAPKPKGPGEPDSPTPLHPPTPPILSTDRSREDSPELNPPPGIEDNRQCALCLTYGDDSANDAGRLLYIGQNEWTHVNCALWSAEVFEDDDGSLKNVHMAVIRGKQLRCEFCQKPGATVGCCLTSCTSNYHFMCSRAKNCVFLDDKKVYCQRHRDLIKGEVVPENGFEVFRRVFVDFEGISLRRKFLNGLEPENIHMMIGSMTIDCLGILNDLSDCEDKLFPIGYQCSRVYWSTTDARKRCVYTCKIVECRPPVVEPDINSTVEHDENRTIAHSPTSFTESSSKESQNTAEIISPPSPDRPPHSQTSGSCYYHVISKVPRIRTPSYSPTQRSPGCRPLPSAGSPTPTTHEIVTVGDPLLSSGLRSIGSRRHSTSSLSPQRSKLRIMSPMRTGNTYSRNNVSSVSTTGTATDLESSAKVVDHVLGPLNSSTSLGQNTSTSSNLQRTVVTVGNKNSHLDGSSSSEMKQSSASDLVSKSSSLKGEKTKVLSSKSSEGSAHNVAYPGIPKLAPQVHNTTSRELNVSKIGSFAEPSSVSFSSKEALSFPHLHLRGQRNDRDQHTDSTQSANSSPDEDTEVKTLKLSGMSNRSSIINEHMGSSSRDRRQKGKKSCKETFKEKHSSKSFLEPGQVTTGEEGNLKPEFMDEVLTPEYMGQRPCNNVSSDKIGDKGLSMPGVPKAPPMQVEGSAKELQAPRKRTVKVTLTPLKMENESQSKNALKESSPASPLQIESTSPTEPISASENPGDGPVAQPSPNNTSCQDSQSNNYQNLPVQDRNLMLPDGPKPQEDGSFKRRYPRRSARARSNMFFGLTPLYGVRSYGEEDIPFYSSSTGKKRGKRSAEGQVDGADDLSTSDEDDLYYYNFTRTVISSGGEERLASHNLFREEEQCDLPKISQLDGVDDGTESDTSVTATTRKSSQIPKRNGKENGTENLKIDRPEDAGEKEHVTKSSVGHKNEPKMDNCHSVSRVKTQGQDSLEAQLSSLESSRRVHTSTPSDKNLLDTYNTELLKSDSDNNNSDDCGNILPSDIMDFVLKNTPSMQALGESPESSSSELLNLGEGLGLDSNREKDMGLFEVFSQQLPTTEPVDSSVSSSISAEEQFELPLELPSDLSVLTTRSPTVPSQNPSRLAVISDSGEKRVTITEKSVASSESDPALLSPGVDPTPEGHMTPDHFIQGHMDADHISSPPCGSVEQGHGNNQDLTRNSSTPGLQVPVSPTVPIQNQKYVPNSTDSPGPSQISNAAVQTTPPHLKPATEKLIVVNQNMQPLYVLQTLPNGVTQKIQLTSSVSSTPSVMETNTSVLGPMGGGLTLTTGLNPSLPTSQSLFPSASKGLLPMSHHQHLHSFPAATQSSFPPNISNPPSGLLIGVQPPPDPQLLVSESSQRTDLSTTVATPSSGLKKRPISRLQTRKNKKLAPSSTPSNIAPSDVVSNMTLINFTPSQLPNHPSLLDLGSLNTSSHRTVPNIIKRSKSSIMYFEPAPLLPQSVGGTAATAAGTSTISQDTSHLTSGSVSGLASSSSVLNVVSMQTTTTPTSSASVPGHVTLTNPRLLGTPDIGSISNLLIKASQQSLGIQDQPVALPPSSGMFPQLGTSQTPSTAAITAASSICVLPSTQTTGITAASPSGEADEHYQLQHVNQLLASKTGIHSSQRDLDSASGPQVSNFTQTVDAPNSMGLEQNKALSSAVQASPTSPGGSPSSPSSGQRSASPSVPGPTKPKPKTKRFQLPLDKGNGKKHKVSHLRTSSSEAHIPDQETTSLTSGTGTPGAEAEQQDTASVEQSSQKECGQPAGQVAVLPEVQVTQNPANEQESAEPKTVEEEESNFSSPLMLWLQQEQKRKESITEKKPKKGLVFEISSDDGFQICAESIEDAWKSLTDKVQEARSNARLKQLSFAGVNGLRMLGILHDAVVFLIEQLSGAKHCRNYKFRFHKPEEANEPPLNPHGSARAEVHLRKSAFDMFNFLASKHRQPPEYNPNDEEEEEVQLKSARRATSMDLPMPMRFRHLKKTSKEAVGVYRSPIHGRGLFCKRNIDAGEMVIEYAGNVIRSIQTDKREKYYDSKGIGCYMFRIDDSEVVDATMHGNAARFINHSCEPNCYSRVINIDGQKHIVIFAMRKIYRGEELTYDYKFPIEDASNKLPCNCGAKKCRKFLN

Row | SMILES | Potency | activity change, negative = inhibition
1 | O=C(COc1ccc(S(=O)(=O)NCc2ccccc2)cc1Cl)NCC1CCCO1 (stereo unspecified) | inconclusive: 5.62 µM [inhibitor, full curve, poor fit] | –
2 | O=C(N/N=C/c1ccoc1)c1ccccc1F | inconclusive: 14.1 µM [fluorescent, side channel, single point] | –
3 | CC(=O)N1CCN(Cc2nc(-c3cccc(Cl)c3)no2)CC1 | inconclusive: 8.91 µM [inhibitor, full curve, poor fit] | –
4 | COc1ccc2nc(C)cc(Nc3cccc(C(=O)O)c3)c2c1 | – | inactive: -14.3%
5 | Cc1cc(=O)oc2c1ccc1ccccc12 | inconclusive: 35.5 µM [fluorescent, side channel, partial curve] | –
6 | N/C(=N\OC(=O)c1ccc2c(c1)OCO2)c1cccc([N+](=O)[O-])c1 | – | inactive: 2.62%
7 | O=C1S/C(=C\c2ccc(N3CCOCC3)o2)C(=O)N1Cc1ccc(F)cc1 | inconclusive: 31.6 µM [fluorescent, side channel, partial curve] | –
8 | O=C(CCCCCNC(=O)c1ccccc1Br)N=Nc1c(O)[nH]c2ccccc12 | inconclusive: 56.2 µM [quencher, side channel, single point] | –
9 | CCCCN(C)C(=O)C1CCN(Cc2cccnc2)CC1 | inconclusive: 1.41 µM [quencher, side channel, full curve, poor fit] | –
10 | O=C(CCc1nnc(CCCc2ccccc2)o1)NCC(F)(F)F | – | inactive: 0.999%
11 | COc1cc(/C=C2\SC(=S)N(NC(=O)c3ccncc3)C2=O)ccc1O | inconclusive: 22.4 µM [fluorescent, side channel, partial curve] | –
12 | COc1ccccc1NC(=O)c1ccc(COc2ccccc2Br)o1 | inconclusive: 14.1 µM [inhibitor, single point] | –
13 | O=C(c1cc(-c2ccncc2)nc2ccc(Br)cc12)N1CCN(c2ccccn2)CC1 | – | inactive: 2.65%
14 | Cc1nnsc1NC(=O)OCC(C)(C)C | inconclusive: 56.2 µM [inhibitor, single point] | –
15 | COCC(=O)N1CCC(Oc2ccc(C(=O)N3CCCCCC3)cc2)CC1 | inconclusive: 15.8 µM [quencher, side channel, single point] | –
16 | Cc1cc(C(=O)CSc2nnc(-c3ccccc3)n2Cc2ccc3c(c2)OCO3)c(C)n1C | – | inactive: -12%
17 | Oc1ccc(CN2CCCc3ccccc32)c2cccnc12 | inconclusive: 12.6 µM [fluorescent, side channel, partial curve] | –
18 | O=C(OCc1cccc([N+](=O)[O-])c1)c1cccnc1Cl | inconclusive: 15.8 µM [fluorescent, side channel, single point] | –
19 | COc1cc(/C=N/NS(=O)(=O)c2ccc3ccccc3c2)ccc1OCCN1CCOCC1 | inconclusive: 11.2 µM [fluorescent, side channel, single point] | –
20 | COc1ccc(C)cc1S(=O)(=O)N1CCN(S(=O)(=O)c2cc(C)ccc2OC)CC1 | inconclusive: 12.6 µM [quencher, side channel, full curve] | –
21 | CC1=CN2C(=N)/C(=C/c3ccc([N+](=O)[O-])o3)C(=O)N=C2S1 | inconclusive: 31.6 µM [fluorescent, side channel, partial curve] | –

A different layout for some results above:
Row	SMILES	Potency	activity change, negative = inhibition
6	N/C(=N\OC(=O)c1ccc2c(c1)OCO2)c1cccc([N+](=O)[O-])c1	–	inactive: 2.62%
14	Cc1nnsc1NC(=O)OCC(C)(C)C	inconclusive: 56.2 µM [inhibitor, single point]	–
19	COc1cc(/C=N/NS(=O)(=O)c2ccc3ccccc3c2)ccc1OCCN1CCOCC1	inconclusive: 11.2 µM [fluorescent, side channel, single point]	–

Continuation.

Row | SMILES | Potency | activity change, negative = inhibition
22 | CCOC(=O)c1c(NC(=O)Cn2nnc(-c3ccc(Cl)cc3)n2)sc(C)c1C | – | inactive: -5.79%
23 | COc1ccc(CN2CCC(Oc3cc(C(=O)NC4CC4)ccc3OC)CC2)c(O)c1 | – | inactive: -5.89%
24 | Cc1occc1C(=O)NNC(=O)c1ccccc1C(=O)O | inconclusive: 35.5 µM [fluorescent, side channel, partial curve] | –
25 | CC(C)COCC(O)CCC(=O)NNC(=S)Nc1ccccc1 (stereo unspecified) | – | inactive: -1.56%
26 | CN1CCN(c2nnc(-c3ccc(Cl)cc3)c3ccccc23)CC1 | inconclusive: 70.8 µM [fluorescent, side channel, single point] | –
27 | O=C(O)c1ccc(Cl)c(N2C(=O)Nc3ccccc3N2O)c1 | – | inactive: 7.35%
28 | CCCCN1C(=O)C(=O)N(CC(=O)Nc2ccccc2C(=O)OCC)C1=O | inconclusive: 12.6 µM [quencher, side channel, single point] | –
29 | Oc1ccc(Br)cc1-c1n[nH]c(=S)n1Cc1ccccc1 | inconclusive: 14.1 µM [inhibitor, single point] | –
30 | COc1ccc(/C(C)=N/NC(=O)C2CC2)cc1 | inconclusive: 70.8 µM [quencher, side channel, single point] | –
31 | COc1ccc(NC(=S)Nc2ccc3snnc3c2)cc1 | – | inactive: 8.42%
32 | Cc1ccc(Nc2nc(N)nc(CN3CCN(Cc4ccc5c(c4)OCO5)CC3)n2)c(C)c1 | – | inactive: 0.924%
33 | COc1nccnc1NS(=O)(=O)c1ccc(N=Cc2c(C)[nH]n(-c3ccccc3)c2=O)cc1 | inconclusive: 70.8 µM [fluorescent, single point] | –
34 | COc1ccc(C(=O)N(c2ccc(OC)cc2)S(=O)(=O)c2cccs2)cc1 | – | inactive: 180%
35 | CC1CN(c2ccc(Cl)nn2)CC(C)O1 (stereo unspecified) | inconclusive: 1 µM [fluorescent, side channel, full curve, poor fit] | –
36 | CNC(=S)N1N=C(c2ccc(C)cc2)CC1c1ccc(N(C)C)cc1 (stereo unspecified) | – | inactive: 54%
37 | O=S(=O)([O-])CCC[n+]1c(/C=C\Nc2ccccc2)oc2ccc(-c3ccccc3)cc21 | inconclusive: 3.98 µM [fluorescent, side channel, full curve, poor fit] | –
38 | CNC1(C(N)=O)CCNCC1 | inconclusive: 31.6 µM [fluorescent, side channel, partial curve] | –
39 | NS(=O)(=O)c1ccc(-c2cccc(/C=C3\SC(=O)NC3=O)c2)cc1 | inconclusive: 20 µM [inhibitor, full curve, poor fit] | –
40 | Cc1c(-c2cc(Br)ccc2O)nc2cc3c(cc2c1C)OCO3 | inconclusive: 31.6 µM [fluorescent, side channel, partial curve] | –
41 | CCCCN(C)CCNC(=O)c1cc2c(-c3cccc(OC)c3)nn(C)c2s1 | inconclusive: 39.8 µM [quencher, side channel, partial curve, poor fit] | –

— PubChem BioAssay AID2662 (National Center for Advancing Translational Sciences (NCATS), 2010)
